Our source for the binding values is article PMC9243175.

No constants are given. Whether binding was seen depends on the method and setting. A result given as binding can be weak or reduced; the word gives no strength. Sequences can lack the tags named with a protein.

For this experiment, the target named is T1, GST-tagged HCN1c40 protein (C-terminal 40 amino acids of HCN1) (UniProt O88704).
T1 sequence: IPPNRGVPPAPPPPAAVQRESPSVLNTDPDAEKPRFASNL
Nature of the experiment: AlphaScreen or HTRF; 20 nM GST-HCN1c40 and 200 nM His-TRIP8b(241-602) incubated 3 h with varying concentrations of the compound NUCC-0200590; anti-GST acceptor beads 1.5 h, then nickel chelate donor beads 1.5 h; both purified. Background: Alpha assays give light when donor and acceptor beads are brought close together.

Regarding “His-tagged TRIP8b (241–602) (domain or fragment)”, the binding result was “binds”.
